# Assay results published in the supplement of paper PMC4683952.
# The list shows a part of the results. No stated cut-off is given here; in the data, active = 2 or more and inactive = the rest. Most values lie within the scatter of the assay; repeated measurements hardly agree.
# System: Lgr5 (MarsCy1-Lgr5-EGFP, U2OS)
# Experiment: cell-surface Lgr5 expression (SCi1 fluorescence, background-subtracted) relative to WT DMSO (fold of DMSO control); higher = more Lgr5 at the plasma membrane
# Details: U2OS MarsCy1-Lgr5-EGFP stable; treatment time: overnight; library: ActiProbe-5K (TimTec); 25 µM
row,Compound,cell-surface Lgr5 expression
1,N=c1c(C(N)=S)cnc2ccccn12,inactive: 1.15
2,S=C(c1ccncc1)N1CCOCC1,inactive: 1.18
3,CC1(C)CC2(CCO1)OC(=O)CC2C(=O)O (centres undefined),inactive: 1.26
4,CCn1cc(Cl)c(C(=O)NC(Cn2cccn2)C(C)(C)C)n1 (centres undefined),inactive: 1.11
5,CC1CCCC(N2CCN(C(C)C)CC2)C1 (centres undefined),inactive: 1.28
6,Cc1cc2c(c(=O)[nH]1)C(=O)O/C2=C\c1c[nH]nc1-c1cccs1,inactive: 1.17
7,CC1=CN2C3=C(C(=O)CCC3)C3(OC2C=C1)C(=O)c1ccccc1C3=O (centres undefined),inactive: 1.37
8,COc1ccc2c3c(ccc2c1)-c1[nH]c2ccccc2c1CC3,inactive: 1.17
9,S=c1[nH]c2cc(Cl)ccc2o1,inactive: 1.24
10,O=C1NN(c2ccccc2)C(=O)/C1=C/c1ccco1,inactive: 1.05
11,c1ccc(-c2ccc3[nH]cnc3c2-c2ccccc2)cc1,inactive: 1.23
12,CC(=O)OCC1OC(n2cnc3c(=O)[nH]cnc32)C(OC(C)=O)C1OC(C)=O (centres undefined),inactive: 1.12
13,O=S1(=O)N=C(NCCCN2CCOCC2)c2ccccc21,inactive: 0.946
14,CC(=O)c1sc(N)nc1C,inactive: 1.29
15,N/C(CSc1nc(-c2ccccc2)c(-c2ccccc2)o1)=N/O,inactive: 0.804
16,O=[N+]([O-])/C=C\c1cccs1,inactive: 1.35
17,c1ccc2[nH]c(CSc3nnc4[nH]c5ccccc5n34)nc2c1,inactive: 1.53
18,O=[N+]([O-])c1ccc(/C=N\c2cc(Cl)cc(Cl)c2)s1,active: 2.38
19,C(C)(C)(C1=NC(CO1)[c@@]1ccccc1)C1=NC(CO1)[c@@]1ccccc1 (centres undefined),inactive: 1.16
20,CC(C)N1CC=C2C(C#N)=C(N)C(C#N)(C#N)[C@@H](c3ccsc3)[C@@H]2C1,inactive: 0.971
21,CC(C)COc1ccc2c(c1)c1c3n2CCNC3CCC1.Cl (centres undefined),inactive: 1.37
22,O=[N+]([O-])/C(=C\Sc1ccccn1)c1ccccc1,inactive: 1.01
23,Cc1ccc(C2=NNC3(CCCCC3)S2)cc1,inactive: 1.26

# Compounds above that contain an aryl thioether with sulfur outside any ring (three):
row,Compound,cell-surface Lgr5 expression
15,N/C(CSc1nc(-c2ccccc2)c(-c2ccccc2)o1)=N/O,inactive: 0.804
17,c1ccc2[nH]c(CSc3nnc4[nH]c5ccccc5n34)nc2c1,inactive: 1.53
22,O=[N+]([O-])/C(=C\Sc1ccccn1)c1ccccc1,inactive: 1.01

# The list goes on:

row,Compound,cell-surface Lgr5 expression
1,CCOC(=O)c1c(N)nc2n1CCC2,inactive: 0.962
2,COCCNS(=O)(=O)c1cc(Cl)ccc1Cl,inactive: 1.34
3,CN(Cc1cccs1)C(=S)SCCO,inactive: 1.14
4,Cn1c2ccccc2n2nc3nc[nH]c(=O)c3c12,inactive: 0.923
5,FC(F)(F)c1ccccc1CN1CCN(CC2CC3C=CC2C3)CC1 (centres undefined),inactive: 1.39
6,N#Cc1sc2nc3c(cc2c1N)CCC3,inactive: 1.31
7,CCn1cc([N+](=O)[O-])c(-c2nc(-c3cccs3)no2)n1,inactive: 1.17
8,CC1(C)CC(=O)C(C(C2=C(O)CC(C)(C)CC2=O)c2ccc(Br)s2)C(=O)C1 (centres undefined),inactive: 1.73
9,O=C(O)c1cc(C2CCCCC2)no1,inactive: 1.1
10,Nc1nc(SCc2ccc(F)cc2)ns1,inactive: 1.24
11,CSc1nc2ccccc2c(=O)n1O,inactive: 0.844
12,COCc1[nH]nc2c1C1(CCN(C)CC1)C(C#N)=C(N)O2,inactive: 1.15
13,c1ccc(Oc2ccc3c(c2)c2c4n3CCNC4CCC2)cc1 (centres undefined),inactive: 0.903
14,CNC(=S)NNC(=O)C12CC3CC(CC(C3)C1)C2,inactive: 1.4
15,O=C(O)CCCN1C(=O)CSC1=S,inactive: 1.36
16,O=[N+]([O-])c1cc(Oc2ccc3c(c2)CCC3)cc(-n2cnnn2)c1,inactive: 1.07
17,O=[N+]([O-])c1ccc(Nc2ccc(O)cc2)c([N+](=O)[O-])c1,inactive: 0.886
18,N#CC1=C(N)OC2=C(C(=O)CCC2)C12CCC1(CC2)OCCO1,inactive: 1.09
19,NC(=O)C1(N2CCCCC2)CCCCC1,inactive: 1.04
20,Brc1ccc(-c2cnc3ncccc3n2)cc1,inactive: 0.869
21,CSc1nc(N)nc2sc3c(O)cc(=O)[nH]c3c12,inactive: 0.973
22,O=C(O)CCCCCN1C(=O)CSC1=S,inactive: 1.17
23,O=C(O)/C=C\C=C/c1ccco1,inactive: 1.22

row,Compound,cell-surface Lgr5 expression
1,Brc1ccc(/N=N/c2ccc(Br)cn2)nc1,inactive: 1.38
2,CS/C(=N\C#N)Nc1ccc(Cl)cc1,inactive: 1.09
3,[O-]c1cc(O)c2sc3nc(-c4cccs4)cc(-c4cccs4)c3c2n1,inactive: 1.3
4,O=C(N1CCN(S(=O)(=O)c2ccc(Br)s2)CC1)C12CC3CC(CC(C3)C1)C2,inactive: 0.932
5,O=S(=O)(NCCC1CCCC1)c1cccc2c(S(=O)(=O)NCCC3CCCC3)cccc12,inactive: 1.13
6,O=C1c2ccccc2C(=O)N1CSc1nc2ccccc2s1,inactive: 1.17
7,Fc1ccc(-c2csc(S)n2)cc1,active: 2.38
8,O=[N+]([O-])c1ccc(Sc2cccs2)c([N+](=O)[O-])c1,inactive: 1.25
9,COC(=O)c1ccn(Cn2cc(Br)cn2)n1,inactive: 1.16
10,O=[N+]([O-])c1cccc(NC2OC(CO)C(O)C2O)c1 (centres undefined),inactive: 1.07
11,CCN(CC)c1ccc(C2NN=C(c3ccc(C)cc3)S2)cc1 (centres undefined),inactive: 0.948
12,CC(C)(C)c1ccc(S(=O)(=O)C(C)(C)C)cc1,inactive: 1.2
13,Cc1cc2c(c(=O)o1)C(c1cccs1)C(C#N)=C(N)O2 (centres undefined),inactive: 1.31
14,O=S(=O)(Nc1cc(Cl)ccc1Cl)c1cccs1,inactive: 1.15
15,O=S(=O)(Nc1cc(Cl)cc(Cl)c1)c1cccs1,inactive: 1.1
16,Cc1sc2nc(C)n(NC(N)=O)c(=O)c2c1C,inactive: 1.07
17,O=C1C=C/C(=C\c2ccc(Br)o2)O1,inactive: 1.53
18,O=C(C1CC1)N1CCc2ccccc21,inactive: 0.798
19,Fc1ccc(/C=N/n2c(S)nnc2-c2cccnc2)cc1,inactive: 1.06
20,Cc1occc1C(=O)NNC(=O)C(F)(F)F,inactive: 1.1
21,O=C1OCc2c1[nH]c(=O)[nH]c2=O,inactive: 1.29
22,COc1cc(S(=O)(=O)NCCOC23CC4CC(CC(C4)C2)C3)c(OC)cc1Cl,inactive: 1.1
23,O=[N+]([O-])c1cc(/C=N\c2ccc(S(=O)(=O)NC3NC=CS3)cc2)c2c(c1)COCO2 (centres undefined),inactive: 0.98
